PubChem BioAssay AID1159578 – Peter MacCallum Cancer Centre | 2015
This is one part, drawn at random, of about 18,000 reagents. About 1,030 of them (5.7%) were called active. 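Inactive calls also include pools with fewer than 3300 nuclei, whose migration was not assessed.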 Raw values are not corrected between plates. Not all columns of the deposit are shown.

- Test: 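Knock-downs that alter how fast lymphatic endothelial cells migrate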 (primary screen)
- Cells: human lymphatic endothelial cells
- Reagent: siRNA pool against human genes, 40 nM
- Time to read-out: 48 h after transfection
- Measurement: 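High-content imaging of dye-stained cells in a scratch assay measures filled wound area and nuclei per well; duplicate means given as ratio to mock and robust z-score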
- Scale: migration robust z-score: higher = faster migration into the scratch; nuclei per well: higher = more cells in the well
- Hit rule: 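Migration changed when robust z exceeds 2 or falls below -2 and mean nuclei number is at least 3300; otherwise not called changed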
- Calls: active = migration changed; inactive = no migration change, or too few cells

Against CHRNA5 the deposit lists migration robust z-score -0.55; nuclei per well, duplicate mean 4996; inactive.
Against WIPI2, the values are migration robust z-score 1.32; nuclei per well, duplicate mean 6244; inactive.
For MTX2 the deposit lists migration robust z-score -0.28; nuclei per well, duplicate mean 6188; inactive.
Against SLC68A1, the entry reads migration robust z-score 0.8; nuclei per well, duplicate mean 7073; inactive.
Depletion of MCL1 came out at: migration robust z-score -5.61; nuclei per well, duplicate mean 2366; inactive.
Against GTF2H4, the values are migration robust z-score -0.44; nuclei per well, duplicate mean 5736; inactive.
LSS showed migration robust z-score -0.32; nuclei per well, duplicate mean 5764; inactive.
TMEFF2 scored migration robust z-score 0.49; nuclei per well, duplicate mean 7092; inactive.
Against FOXP4, the entry reads migration robust z-score -0.29; nuclei per well, duplicate mean 5298; inactive.
CPB2 showed migration robust z-score -0.21; nuclei per well, duplicate mean 6244; inactive.
After knock-down of ADH1B the results were migration robust z-score 0.52; nuclei per well, duplicate mean 5647; inactive.
Silencing of SERP1 gave: migration robust z-score 2.95; nuclei per well, duplicate mean 5804; active.
After knock-down of SPATA6L, the screen gave migration robust z-score -0.7; nuclei per well, duplicate mean 4538; inactive.
Against CDK5RAP2, the entry reads migration robust z-score 0.64; nuclei per well, duplicate mean 6832; inactive.
